# Assay results from PubChem BioAssay AID1347423 (Functional Genomics Laboratory (NCATS/FGL), 2020).
# Hit rate of the full screen: of about 52,000 sequences, about 210 (0.4%) were called active.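 How the source made its calls: active means gene whose silencing raises cell survival under the drug, median off-target-corrected z-score across its silencing RNAs 2 or more; inactive means the rest.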 The list shows a part of the results.
# Assay: Resistance to Poly (ADP-Ribose) Polymerase inhibitor: Gene Identification via Genome-wide siRNA Screen
# Details: mouse BRCA2 R2336H ES cells, olaparib, CellTiter-Glo viability; hits give high values
# How it was run: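 Genome-wide siRNA screen (3 siRNAs/gene, 20 nM) in mouse ES cells carrying hypomorphic BRCA2 R2336H; olaparib 500 nM added 48 h post-transfection, CellTiter-Glo viability 72 h later. Normalized to plate-median negative control; MAD z-scores, gene median, seed-adjusted.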
row,Sequence,z-score
1,GCAAAGCCUUACCAUGUAATT against AU044919,inactive: -1.93
2,CCACCAGGGAUCGUUAUAATT against Phyh,inactive: -0.753
3,CGAAACUGACCUCUACACUTT against Cnnm1,inactive: -1.3
4,GCAUUGGACUCAUAAUUUUTT against Aadat,inactive: -0.161
5,CCCAAUCACUUAUUGAAACTT against Cspg2,inactive: 0.922
6,GGGUUUUGAAAGAGGAAAATT against Osbpl8,inactive: 0.567
7,CCGUGGAGACAGAUCUAGATT against Hif3a,inactive: 0.149
8,GGACGAGAAUCAAGAGCAGTT against Cdkn1c,inactive: 2.16
9,UCCAUCGACUGGGACUCUCTT against LOC381680,inactive: -0.216
10,CCAGAUCUACGAAAGUUUATT against Snx19,inactive: -0.0525
11,CGGAAAAUUUGUUCCUGACTT against C430048L16Rik,inactive: 0.488
12,GCCUGAUUGUGACGUGGUUTT against Slc19a2,inactive: -1.13
13,GGUUAGUCUGACCUGCCUGTT against AI324046,inactive: -1.42
14,GGUGCGCUGUGUUGUUCAUTT against Bmper,inactive: -1.59
15,GCUACUCCAAUAAACGACATT against 2010001H14Rik,inactive: 0.172
16,GGCAUCCAUAAAGAACAGATT against 4432417N03Rik,inactive: 1.42
17,GUAUGAUGCACUCCAGUUGTT against Hdac8,inactive: -1.38
18,UUUCCGUUUUAGGAUGUGATT against Olfr319,inactive: 0.502
19,GGAACAUCACCCUUGCCAATT against 4933425F03Rik,inactive: -0.186
20,CGGACUGGACAUUGAUGAATT against Slc13a1,inactive: -0.188
21,GGUUUUAUAUUGCUUCUCCTT against 9230109A22Rik,inactive: 0.782
22,GGUAGAAAAAGUAAUUUCCTT against Tmprss2,inactive: 1.14
23,CCAUACACAGUAUAAUCAATT against A830023L05,inactive: 0.23
24,CCAACACAUGUGGAGAGUUTT against 5830468K18Rik,inactive: -0.313
25,CGCCCAAAUUGACUAUUUGTT against B230312A22Rik,inactive: -0.592
26,GGAAUAUUCUGGUCCAGAGTT against Cdh24,inactive: 0.0259

# Copied from the list:
# GGACGAGAAUCAAGAGCAGTT against Cdkn1c – z-score: inactive: 2.16
# GGAAUAUUCUGGUCCAGAGTT against Cdh24 – z-score: inactive: 0.0259
# CCAACACAUGUGGAGAGUUTT against 5830468K18Rik – z-score: inactive: -0.313

# (further entries)

row,Sequence,z-score
1,CCUACUUAAGGUCUAGUUUTT against C630007B19Rik,inactive: 0.685
2,GGUAUCCAUGUCAUGCUCUTT against Cyp4a12,inactive: 0.116
3,CGUCAAUGAAUUCGACUCUTT against Pnlip,inactive: -0.114
4,CCCAAUUAGAAUAAAGCUUTT against Asb11,inactive: 0.295
5,GGUCAUCGAGUUGCUUUUUTT against Gga3,inactive: -1
6,GGUGGAGAGCUACAAUAUUTT against Pcdhga11,inactive: -3.26
7,GGUGGACUUCGAGAACAUATT against Cyp2d26,inactive: -1.55
8,CCAUGGUCACCUAUGUCCUTT against Tas2r129,inactive: -0.505
9,GCCCUCAACCAUAAUUCAATT against Zipro1,inactive: 0.8
10,GGUGCAAUCAGGUAUUUCATT against Olfr917,inactive: -2.79
11,GGUUACAAACAUUUGUGAATT against Rds,inactive: -1.46
12,GGUUAUGAAGAUUUCGUUGTT against Myl1,inactive: 0.486
13,AUUACAUGAUGAGCUUGGUTT against Olfr804,inactive: -0.506
14,GGACUUUGAAGAACUAAGUTT against Tfrc,inactive: -1.27
15,GGCCUAAAUUAUAUUAGGATT against Nyx,inactive: 1.49
16,CCCAGCAUGGAUCAAGCACTT against Kb36,inactive: 0.103
17,GGCAAAGUGGAUAAGCAAUTT against Dpp6,inactive: -0.0686
18,GACCCUCGGGCGGAUAAAATT against Nkx2-5,inactive: -0.837
19,CCAAUUACGCCUUUGUACCTT against Tnk2,inactive: 0.391
20,GGUUCAGCUUAUGGUAACUTT against D330038K10Rik,inactive: -1.74
21,GCUGAACAUCUGGGAUGUATT against Arl2,inactive: -0.87
22,GGACUGGGAACUUCUUGACTT against BC038881,inactive: 2.19
23,GCCGAGACAUAUGCCAAGATT against Dm15,inactive: 0.0189
24,GGACCUUGGAGAAAUUAGGTT against Nupr1,inactive: 0.122
25,GGGUAGCUUUUUUUAUAACTT against Tnfrsf11b,inactive: -0.099
26,CCAAUCCGUGUAUUGGUUATT against Itgb5,inactive: 1.05

# Reprinted at random: five entries already listed, in no set order.
row,Sequence,z-score
22,GGACUGGGAACUUCUUGACTT against BC038881,inactive: 2.19
11,GGUUACAAACAUUUGUGAATT against Rds,inactive: -1.46
3,CGUCAAUGAAUUCGACUCUTT against Pnlip,inactive: -0.114
1,CCUACUUAAGGUCUAGUUUTT against C630007B19Rik,inactive: 0.685
16,CCCAGCAUGGAUCAAGCACTT against Kb36,inactive: 0.103

# Going on with the list.

row,Sequence,z-score
1,GCAGGUCUUACCAGAUCGATT against 2010013E08Rik,inactive: -0.84
2,CCUGGAACAAUUUAACCAATT against Mcm6,inactive: -1.09
3,GGAUAAGUCAGAGCUAUAUTT against BC038613,inactive: -1.71
4,GGUCCUCGGUUACAGAAACTT against Cnr2,inactive: 0.655
5,GGAUAUUCAAAGUUACCAATT against Cacna1b,inactive: 2.34
6,GGUCACCCUCAAGUACCCUTT against Thop1,inactive: -0.426
7,GGAGAGCUGGUUCAUCACUTT against Trp53inp1,inactive: 1.58
8,CGAGCUAAACUCAGGCUCUTT against Mxd4,inactive: 1.37
9,GGAAUAGACAUCAAUGUUATT against Ankrd32,inactive: 0.561
10,GGUUGAUUUCACAGAAGAATT against Iqgap1,inactive: -0.664
11,CCAGUCGUAGUGAAUUUGUTT against Gm996,inactive: -0.426
12,GGAGCACUGAUUUGAUAGATT against Lynx1,inactive: 0.68
13,GGAACUUUAUAGUUAGUGCTT against Sfrs6,inactive: 0.472
14,GGACCUGGAGUAUAUGCUGTT against 4933406M09Rik,inactive: 0.794
15,GGGCAAGGAAUUUAUUACATT against Map2k4,inactive: -0.226
16,CCCUUGCUAGUCCUUCUAUTT against 6720463M24Rik,inactive: 0.458
17,GGAAGACAACAAGGAAGAGTT against Spt1,inactive: -0.431
18,CACUGACCAAAUUAUCACCTT against Olfr763,inactive: 0.99
19,GGUUAGUCUCUCCAGAAAGTT against Polg2,inactive: -0.219
20,GGUUGUUAAUCAGUGUUUATT against 1110019N10Rik,inactive: -0.304
21,GCAUAUCUGUUCAUGAUGATT against Cmya5,inactive: 0.579
22,GCAGCUCAGUUAUUGUCAGTT against Cyp20a1,inactive: 0.929
23,GGUUUUUGUGGAAAUGUGGTT against 4122402O22Rik,inactive: 0.151
24,CGCAGUAACCUGUUUGAGCTT against X83328,inactive: 0.259
25,GGUAGCUACUCAUAUAUAGTT against E330037G11Rik,inactive: -2.42
26,GGCCCUUCCCAGAUAUGCATT against AU018829,inactive: 3.5

row,Sequence,z-score
1,GCUACGCUAUCCAAAUUCUTT against AF529169,inactive: -0.118
2,CCAUACAUAAAAAGCCGCCTT against Il1rl1,inactive: 0.894
3,GGCAGCUGUUAUGCUUUUCTT against 1110055L24Rik,inactive: 0.345
4,GGACAAUGGCCAUGUUUUATT against 2310030G06Rik,inactive: 0.221
5,GGUUGCAUUGUAGGGUUGGTT against Olfr129,inactive: 0.84
6,GGUUUUACAUUCUGUGUUUTT against 1700030K01Rik,inactive: -0.487
7,GGUGACUCUACAAGCCUUUTT against 1110011K10Rik,inactive: 0.111
8,GCCGACUCUGGAAAUUAUCTT against C130076O07Rik,inactive: 0.436
9,GCAAAUAUUGGCCACUCUCTT against Prp19,inactive: -0.802
10,GGAUCAAGACAAAAAACUUTT against Arhgap17,inactive: -0.443
11,GCUAAGUCCGACUAAGCAUTT against Hmgn1,inactive: -0.361
12,GCAUGUCAGACUGGUGCAATT against Smfn,inactive: 1.34
13,CCACAUCUCGCAAACACGATT against LOC545554,inactive: 0.011
14,CGCAUUAUGCUUGAAAUGUTT against Nefh,inactive: 1.21
15,GGGCAACAUUGAAACAAAUTT against Idh3g,inactive: 2.2
16,GCCAAAGUGCAGAAUUGGUTT against Rhox1,inactive: -0.0467
17,GGCGGUAACCACUUUCACGTT against Nmyc1,inactive: -0.0158
18,GGAGGAGAGAACAAAAUGUTT against Itgb1bp2,inactive: 1.06
19,CCUUGUUAGAGCAUUACAATT against BC021395,inactive: -0.81
20,CGGCUUAGUAAAUGUGACUTT against Gm443,inactive: 0.965
21,CCGGUAUUCAAUAGCUCUCTT against Cybb,inactive: 0.0779
22,GGAUACUCGGGAUCUAGUATT against Anxa11,inactive: -1.71
23,CGGGAAUCCUAUCUAUCAATT against Smox,inactive: 2.03
24,GCUACGUUAAGUGAAGAUATT against Acad9,inactive: -0.331
25,GCGACACCCUGAUCAUGAATT against Ascl3,inactive: -0.0816
26,GGUGUUUGAUCUUUUAAAGTT against BC025462,inactive: -0.576
